According to patent publication US20180327500A1:
Results are given in words; binding and its absence hold for the method and conditions named. A result given as binding can be weak or reduced; the word gives no strength.

How the values were obtained:
[1] = biological target: His tagged cynomolgus MET ECD (Sinobiological) (cynomolgus); test: SPR (Bio-Rad XPR-36)
[2] = biological target: His tagged cynomolgus MET ECD (Sinobiological) (cynomolgus); test: kinetic binding analysis (SPR)
LS1 = test: flow cytometry on transfected HEK293 cells
Mouse blade 7-IPT4 = test: flow cytometry on transfected HEK293 cells
Chicken IPT2 domain = test: flow cytometry on transfected HEK293 cells
Mouse blade 5a = test: flow cytometry on transfected HEK293 cells
Chicken IPT3 domain = test: flow cytometry on transfected HEK293 cells
Mouse Blade 5b = test: flow cytometry on transfected HEK293 cells
Mouse blade 4 = test: flow cytometry on transfected HEK293 cells
Mouse Blade 1 = test: flow cytometry on transfected HEK293 cells
Mouse Blade 6-IPT4 = test: flow cytometry on transfected HEK293 cells
Mouse Blade 1-2 = test: flow cytometry on transfected HEK293 cells
Chicken PSI domain = test: flow cytometry on transfected HEK293 cells
Mouse PSI -IPT4 = test: flow cytometry on transfected HEK293 cells
Chicken IPT4 domain = test: flow cytometry on transfected HEK293 cells
Chicken IPT1 domain = test: flow cytometry on transfected HEK293 cells
Mouse blade 3 = test: flow cytometry on transfected HEK293 cells

Measured: binding

B1: humanized antibody 9006 (antibody, human IgG1, kappa, V domains shown)
VH: QVQLVQSGSELKKPGASVKVSCKASGYTFTNFRMNWVKQAPGQGLKWMGWINTYTGEPTYVDDLKGRFVFSLDTSVSTAYLQISSLKAEDTAVYYCARKGIARAMDYWGQGTTVTVSS
VL: DIVMTQSPDSLAVSLGERATINCKSSQSLLDSGNQKNYLAWYQQKPGQPPKLLIFGASTRESGVPDRFSGSGSGTDFTLTISSLQAEDVAVYYCQNDHSYPYTFGQGTKLEIKR
not listed: Mouse blade 3
binds: all other assays above

B2: humanized antibody 9338 (antibody, human IgG1, kappa, V domains shown)
VH: QVQLVQSGAEVKKPGSSVKVSCKASGYTFTSYWMHWVRQAPGQGLEWMGYINPSSGHIENNQKFKDRVTITADKSTSTAYMELSSLRSEDTAVYYCARGRFAYWGQGTLVTVSS
VL: EIVLTQSPATLSLSPGERATLSCSASSSVSSGYLYWYQQKPGQAPRLLIYSTSNLASGIPARFSGSGSGTDFTLTISSLEPEDFAVYYCHQWSSYPFTFGSGTKLEIKR
binds: [1] | [2] | Chicken IPT2 domain | Mouse blade 3 | Chicken IPT3 domain | Chicken PSI domain | Chicken IPT4 domain | Chicken IPT1 domain
